Patent US20240189319A1, “RIFAMYCIN ANALOGS IN COMBINATION WITH VANCOMYCIN AND USES THEREOF” (Regeneron Pharmaceuticals, Inc, priority 2021, published 2024)
At least one compound was matched to its structure with a doubt left.

Assays:
[1] = system: S. aureus MRSA strain N315; test: S. aureus IV advanced disseminated infection mouse model, strain N315 (kidney burden); assay type: in vivo, Staphylococcus aureus; conditions: Example 3D; 25 mg/kg + vancomycin
Procedure: To test the efficacy of rifamycin analogs (I) and (II) according to the disclosure in combination therapy with vancomycin in vivo, a 4-day intravenous disseminated infection model was utilized. S. aureus MSRA strain NRS384 or N315, where indicated, was grown overnight in tryptic soy broth (TSB) and sub-cultured to mid-logarithmic phase. Bacteria were then washed twice with PBS and resuspended in PBS at a concentration of 1.5×10^8 cfu/mL NRS384 or 6.0×10^8 N315. Six-week-old Balb/c mice were then infected intravenously through the tail vein with 100 uL of the bacterial suspension, for a final infectious dose of 1.5×10^7 cfu/mouse NRS384 or 6.0×10^7 N315. From one to three days post infection, indicated mice were treated with 110 mg/kg vancomycin subcutaneously twice daily where indicated. Rifamycin analogs (I) or (II) were administered subcutaneously at the indicated dose two days after infection. Mice were monitored for weight loss and body conditioning score throughout the infection. At four days post infection, mice were euthanized, and the S. aureus kidney burden was quantified by tissue homogenization followed by enumeration of colony forming units through serial dilution in PBS and plating onto trypticase soy agar plates. Data points represent the kidney burden from individual mice tested. […]

[2] = system: S. aureus MRSA strain NRS384; test: S. aureus IV advanced disseminated infection mouse model, strain NRS384 (kidney burden); assay type: in vivo, Staphylococcus aureus; conditions: for kidney burden (in words): Example 3C
Procedure: To test the efficacy of rifamycin analogs (I) and (II) according to the disclosure in combination therapy with vancomycin in vivo, a 4-day intravenous disseminated infection model was utilized. S. aureus MSRA strain NRS384 or N315, where indicated, was grown overnight in tryptic soy broth (TSB) and sub-cultured to mid-logarithmic phase. Bacteria were then washed twice with PBS and resuspended in PBS at a concentration of 1.5×10^8 cfu/mL NRS384 or 6.0×10^8 N315. Six-week-old Balb/c mice were then infected intravenously through the tail vein with 100 uL of the bacterial suspension, for a final infectious dose of 1.5×10^7 cfu/mouse NRS384 or 6.0×10^7 N315. From one to three days post infection, indicated mice were treated with 110 mg/kg vancomycin subcutaneously twice daily where indicated. Rifamycin analogs (I) or (II) were administered subcutaneously at the indicated dose two days after infection. Mice were monitored for weight loss and body conditioning score throughout the infection. At four days post infection, mice were euthanized, and the S. aureus kidney burden was quantified by tissue homogenization followed by enumeration of colony forming units through serial dilution in PBS and plating onto trypticase soy agar plates. Data points represent the kidney burden from individual mice tested.
In this experiment, mice infected with S. aureus MSRA strain NRS384 were treated with vancomycin alone (control) or vancomycin in combination with 0.002 mg/kg to 25 mg/kg rifampicin, a commercially-available rifamycin analog control.
In this experiment, mice infected with S. aureus MSRA strain NRS384 were treated with vancomycin alone (control) or vancomycin in combination with 0.01-0.25 mg/kg rifamycin analog (I) or 0.01-0.25 mg/kg rifamycin analog (II).
In this experiment, mice infected with S. aureus MSRA strain NRS384 were treated with 25 mg/kg rifampicin (control) or 0.002-0.25 mg/kg rifamycin analog (II) alone or in combination with vancomycin, with vancomycin alone as a control.

## CO[C@H]1/C=C/O[C@@]2(C)Oc3c(C)c(O)c4c(O)c(c(/C=N/N5CCN(C)CC5)c(O)c4c3C2=O)NC(=O)/C(C)=C\C=C\[C@H](C)[C@H](O)[C@@H](C)[C@@H](O)[C@@H](C)[C@H](OC(C)=O)[C@@H]1C [Rifampicin, reference compound]
[1]
  kidney burden relative to limit of detection (in words): at or near the limit of detection
[2]; Example 3A, at 25 and 0.25 mg/kg
  efficacy in combination with vancomycin (in words): effective
[2]; Example 3A, at higher doses of rifampicin
  kidney burden, combination with vancomycin versus vancomycin alone (in words): further reduces kidney burden
[2]; Example 3A, at lower doses (below 0.25 mg/kg)
  efficacy in combination with vancomycin (in words): efficacy was reduced
[2]; 25 mg/kg as a monotherapy
  kidney burden (in words): ineffective
[2]; 25 mg/kg combined with vancomycin
  kidney burden (in words): reduced kidney burden
